Source: PubChem BioAssay AID330 (DTP/NCI, 2004)
The list is a part of this screen's results and no random one: it is rich in T/C values a quarter to a half above the control, in often repeated tests (any T/C) and in doses without a T/C. Other doses and runs of a compound stand elsewhere. T/C: endpoint of the treated group in % of that of the vehicle group. Some entries give survivors of the animals treated and no T/C: the source holds a T/C of zero for them, seemingly a mark for toxic or unscored doses. Some survivor counts are full or nearly so, which does not show that the dose was tolerated: the source hardly ever lists a survival T/C far under the control, and the zero likely stands for such cases as well. Counts of survivors are from the toxicity check (mostly the fifth day) where no day follows; animals may have died later. Schedule codes are those of the source, taken here to give the interval after Q, in days (D) or hours (H), and the number of doses after X. Some entries hold several experiments; the results are listed from low to high. Where survival is the endpoint, this PubChem deposit counts one and a half times the control or more as active, and values a quarter to a half above the control carry no call in these data; other NCI protocols may use other cut-offs. Signs of the kind (2×) stand for listed records that agree. Some T/C values are followed by the survivors on the day toxicity was checked, most often the fifth; without a count, all were alive then.

Test system: P388 leukemia ip, CD2F1 mice, survival T/C
Experiment: NCI In Vivo Anticancer Drug Screen. Data for tumor model P388 Leukemia (intraperitoneal) in CD2F1 (CDF1) mice
Settings: T/C endpoint: median survival time, higher T/C = longer survival
[1] = dose: 20.0 mg/kg/injection, schedule: Q01DX005 (ip), vehicle: saline with Tween-80
[2] = dose: 64.0 mg/kg/injection, schedule: Q04DX003 (ip), vehicle: water
[3] = dose: 240.0 mg/kg/injection, schedule: Q01DX005 (ip), vehicle: saline with Tween-80

## O=C(O)CCCc1ccc(N(CCCl)CCCl)cc1
dose: 1.87 mg/kg/injection, schedule: Q01DX009 (ip), vehicle: Klucel (hydroxypropylcellulose) (HPC)
  T/C: 141 % of control
dose: 2.0 mg/kg/injection, schedule: Q03HX008 (ip), vehicle: saline
  T/C: 127 % of control
dose: 2.5 mg/kg/injection, schedule: Q01DX005 (ip), vehicle: saline with Tween-80, evaluated on day 30
  T/C: 121 and 131 % of control
dose: 2.5 mg/kg/injection, schedule: Q01DX005 (ip), vehicle: saline with Tween-80, evaluated on day 45
  T/C: 126 and 127 % of control
dose: 4.0 mg/kg/injection, schedule: Q01DX005 (ip), vehicle: saline with Tween-80
  T/C: 130 and 142 % of control
dose: 4.0 mg/kg/injection, schedule: Q03HX024 (ip), vehicle: saline
  T/C: 131 % of control
dose: 5.0 mg/kg/injection, schedule: Q01DX005 (ip), vehicle: saline with Tween-80, evaluated on day 30
  T/C: 130 and 151 % of control
dose: 5.0 mg/kg/injection, schedule: Q01DX005 (ip), vehicle: saline with Tween-80, evaluated on day 45
  T/C: 148 % of control (2×)
dose: 6.0 mg/kg/injection, schedule: Q01DX009 (ip), vehicle: saline + alcohol
  T/C: 149 % of control
dose: 7.2 mg/kg/injection, schedule: Q04DX002 (ip), vehicle: saline with Tween-80
  T/C: 141 % of control
dose: 8.0 mg/kg/injection, schedule: Q01DX005 (ip), vehicle: saline with Tween-80
  T/C: 146 % of control [7 of 8 alive]
dose: 8.0 mg/kg/injection, schedule: Q03HX008 (ip), vehicle: saline
  T/C: 140 % of control
dose: 8.0 mg/kg/injection, schedule: Q04DX003 (ip), vehicle: Klucel (hydroxypropylcellulose) (HPC)
  T/C: 128 % of control
dose: 8.0 mg/kg/injection, schedule: Q04DX003 (ip), vehicle: water
  T/C: 130 % of control
dose: 10.0 mg/kg/injection, schedule: Q01DX005 (ip), vehicle: saline with Tween-80, evaluated on day 30
  T/C: 153 and 186 % of control
dose: 10.0 mg/kg/injection, schedule: Q01DX005 (ip), vehicle: saline with Tween-80, evaluated on day 45
  T/C: 181 and 182 % of control
dose: 12.0 mg/kg/injection, schedule: Q04DX002 (ip), vehicle: saline with Tween-80
  T/C: 138 % of control
dose: 15.0 mg/kg/injection, schedule: Q01DX009 (ip), vehicle: Klucel (hydroxypropylcellulose) (HPC)
  T/C: 149 % of control
dose: 16.0 mg/kg/injection, schedule: Q01DX005 (ip), vehicle: saline with Tween-80
  survivor count: 3 of 6
dose: 16.0 mg/kg/injection, schedule: Q01DX009 (ip), vehicle: saline
  T/C: 125 % of control
dose: 16.0 mg/kg/injection, schedule: Q03HX024 (ip), vehicle: saline
  survivor count: 10 of 10
dose: 16.0 mg/kg/injection, schedule: Q04DX003 (ip), vehicle: saline
  T/C: 136 % of control
dose: 16.0 mg/kg/injection, schedule: Q04DX003 (ip), vehicle: water, evaluated on day 30
  T/C: 130 % of control
dose: 16.0 mg/kg/injection, schedule: Q04DX003 (ip), vehicle: water, evaluated on day 45
  T/C: 142 % of control
[1]
  T/C: 220 % of control
  survivor count: 1 of 6, 2 of 8, 3 of 6
dose: 25.0 mg/kg/injection, schedule: Q01DX009 (ip), vehicle: Klucel (hydroxypropylcellulose) (HPC)
  survivor count: 0 of 8
dose: 30.0 mg/kg/injection, schedule: Q01DX009 (ip), vehicle: Klucel (hydroxypropylcellulose) (HPC)
  T/C: 141 % of control
dose: 32.0 mg/kg/injection, schedule: Q01DX001 (ip), vehicle: saline
  T/C: 145 % of control
dose: 32.0 mg/kg/injection, schedule: Q01DX005 (ip), vehicle: saline with Tween-80
  survivor count: 0 of 6
dose: 32.0 mg/kg/injection, schedule: Q01DX009 (ip), vehicle: saline
  survivor count: 9 of 10
dose: 32.0 mg/kg/injection, schedule: Q01DX009 (oral), vehicle: saline
  survivor count: 9 of 10
dose: 32.0 mg/kg/injection, schedule: Q01DX009 (sc), vehicle: saline
  survivor count: 7 of 10
dose: 60.0 mg/kg/injection, schedule: Q01DX009 (ip), vehicle: Klucel (hydroxypropylcellulose) (HPC)
  survivor count: 3 of 6
dose: 64.0 mg/kg/injection, schedule: Q01DX001 (ip), vehicle: saline
  T/C: 140 % of control [9 of 10 alive]
dose: 64.0 mg/kg/injection, schedule: Q01DX009 (ip), vehicle: saline
  survivor count: 0 of 10
dose: 64.0 mg/kg/injection, schedule: Q01DX009 (oral), vehicle: saline
  survivor count: 4 of 10
dose: 64.0 mg/kg/injection, schedule: Q01DX009 (sc), vehicle: saline
  survivor count: 4 of 10
dose: 64.0 mg/kg/injection, schedule: Q04DX003 (ip), vehicle: saline
  survivor count: 8 of 10
[2]
  T/C: 149 % of control
  survivor count: 5 of 6
dose: 64.0 mg/kg/injection, schedule: Q04DX003 (oral), vehicle: saline
  survivor count: 9 of 10
dose: 64.0 mg/kg/injection, schedule: Q08DX002 (ip), vehicle: saline
  survivor count: 10 of 10
dose: 128.0 mg/kg/injection, schedule: Q01DX001 (ip), vehicle: saline
  survivor count: 0 of 10
dose: 128.0 mg/kg/injection, schedule: Q01DX001 (oral), vehicle: saline
  survivor count: 0 of 10
dose: 128.0 mg/kg/injection, schedule: Q01DX001 (sc), vehicle: saline
  T/C: 140 % of control [8 of 10 alive]
dose: 128.0 mg/kg/injection, schedule: Q01DX009 (oral), vehicle: saline
  survivor count: 0 of 10
dose: 128.0 mg/kg/injection, schedule: Q04DX003 (ip), vehicle: saline
  survivor count: 0 of 10
dose: 128.0 mg/kg/injection, schedule: Q04DX003 (oral), vehicle: saline
  survivor count: 3 of 10
dose: 128.0 mg/kg/injection, schedule: Q08DX002 (ip), vehicle: saline
  survivor count: 0 of 10
dose: 256.0 mg/kg/injection, schedule: Q01DX001 (oral), vehicle: saline
  survivor count: 0 of 10
dose: 256.0 mg/kg/injection, schedule: Q01DX009 (oral), vehicle: saline
  survivor count: 0 of 10
dose: 256.0 mg/kg/injection, schedule: Q04DX003 (oral), vehicle: saline
  survivor count: 0 of 10
dose: 512.0 mg/kg/injection, schedule: Q01DX001 (oral), vehicle: saline
  survivor count: 0 of 10
dose: 512.0 mg/kg/injection, schedule: Q04DX003 (oral), vehicle: saline
  survivor count: 0 of 10
dose: 1024.0 mg/kg/injection, schedule: Q01DX001 (oral), vehicle: saline
  survivor count: 0 of 10
dose: 1024.0 mg/kg/injection, schedule: Q04DX003 (oral), vehicle: saline
  survivor count: 0 of 10

## NC(=O)C(N)C(F)c1ccccc1 (stereo not given)
[3]
  survivor count: 5 of 6

## CC(C)(C)C1CC=CC(=O)CC1 (stereo not given)
dose: 400.0 mg/kg/injection, schedule: Q01DX009 (ip), vehicle: Klucel (hydroxypropylcellulose) (HPC)
  survivor count: 0 of 6

## O=C(Cc1nc2ccc(Cl)cc2nc1CC(=O)c1ccccc1)c1ccccc1
dose: 120.0 mg/kg/injection, schedule: Q01DX005 (ip), vehicle: saline with Tween-80
  survivor count: 1 of 6
[3]
  survivor count: 2 of 6

## CCCCOc1ccc2nccc(N/N=C/c3ccc(OC)c4ccccc34)c2c1
dose: 100.0 mg/kg/injection, schedule: Q01DX005 (ip), vehicle: Klucel (hydroxypropylcellulose) (HPC)
  survivor count: 4 of 6
dose: 200.0 mg/kg/injection, schedule: Q01DX005 (ip), vehicle: Klucel (hydroxypropylcellulose) (HPC)
  survivor count: 0 of 6

## Cc1ccc(NC(=O)OCCOc2ccc(-c3ccccc3)cc2)c([N+](=O)[O-])c1
dose: 50.0 mg/kg/injection, schedule: Q01DX009 (ip), vehicle: DMSO
  survivor count: 5 of 6
dose: 100.0 mg/kg/injection, schedule: Q01DX009 (ip), vehicle: DMSO
  survivor count: 5 of 6
dose: 200.0 mg/kg/injection, schedule: Q01DX009 (ip), vehicle: DMSO
  survivor count: 3 of 6

## CC(=O)OC1C=CC(=O)C1 (stereo not given)
dose: 30.0 mg/kg/injection, schedule: Q01DX005 (ip), vehicle: saline with Tween-80
  survivor count: 1 of 6
dose: 60.0 mg/kg/injection, schedule: Q01DX005 (ip), vehicle: saline
  survivor count: 0 of 6
dose: 120.0 mg/kg/injection, schedule: Q01DX005 (ip), vehicle: saline
  survivor count: 0 of 6
dose: 240.0 mg/kg/injection, schedule: Q01DX005 (ip), vehicle: saline
  survivor count: 0 of 6
